{"source": "patent US20130053407A1", "about": "“PYRROLO [3,2-D] PYRIMIDIN-3-YL DERIVATIVES USED AS ACTIVATORS OF AMPK” (GlaxoSmithKline LLC, priority 2010, published 2013)", "note": "Some of these results come from one statement about several compounds together.", "data": [{"tested_on": "Human recombinant AMPK", "experiment": "AMPK Enzymatic Assay (Z'Lyte FRET)", "type": "biochemical", "conditions": "AMPK activation, ATP 100 μM, peptide 2 μM, means of at least 2 independent experiments", "description": "Human recombinant AMPK (Invitrogen #PV4673 & #PV4675) is used in a FRET assay format (Z'Lyte—Invitrogen). Assay conditions are as follow: ATP 100 μM, peptide (Invitrogen #PR8650) 2 μM, 1% final DMSO in Z'Lyte kinase buffer. Reaction is initiated by addition of 0.2-0.8 ng of AMPK and incubated for 1-hour @ 30° C. A further 1-hour incubation @ 30° C. with the development reagent (Invitrogen #PR5194) is performed. FRET signal is then measured and converted to “% peptide phosphorylation” according to Z′Lyte given calculation procedure. Evaluation of compounds is carried out using concentration-response curves. Final data are expressed in “% activation” calculating the ratio of “% peptide phosphorylation” between compound-condition and basal-condition. […] All data are means of at least 2 independent experiments.", "values": [{"smiles": "COc1cccc(-c2ccc(-n3c(Cl)cc4[nH]c(=O)n(CCC(=O)O)c(=O)c43)cc2)c1O", "note": "[Example 1, 3-{6-Chloro-5-[2′-hydroxy-3′-(methyloxy)-4-biphenylyl]-2,4-dioxo-1,2,4,5-tetrahydro-3H-pyrrolo[3,2-d]pyrimidin-3-yl}propanoic acid]", "pEC50": "greater than 5.5"}, {"smiles": "COc1cccc(-c2ccc(-n3c(Cl)cc4[nH]c(=O)n(CCCC(=O)O)c(=O)c43)cc2)c1O", "note": "[Example 2, 4-{6-Chloro-5-[2′-hydroxy-3′-(methyloxy)-4-biphenylyl]-2,4-dioxo-1,2,4,5-tetrahydro-3H-pyrrolo[3,2-d]pyrimidin-3-yl}butanoic acid]", "pEC50": "greater than 5.5"}, {"smiles": "COc1cccc(-c2ccc(-n3c(Cl)cc4[nH]c(=O)n(CC(=O)O)c(=O)c43)cc2)c1O", "note": "[Example 3, {6-Chloro-5-[2′-hydroxy-3′-(methyloxy)-4-biphenylyl]-2,4-dioxo-1,2,4,5-tetrahydro-3H-pyrrolo[3,2-d]pyrimidin-3-yl}acetic acid]", "pEC50": "greater than 5.5"}, {"smiles": "COc1cccc(-c2ccc(-n3ccc4[nH]c(=O)n(CCC(=O)O)c(=O)c43)cc2)c1O", "note": "[Example 4, 3-{5-[2′-Hydroxy-3′-(methyloxy)-4-biphenylyl]-2,4-dioxo-1,2,4,5-tetrahydro-3H-pyrrolo[3,2-d]pyrimidin-3-yl}propanoic acid]", "pEC50": "greater than 5.5"}, {"smiles": "Cc1cccc(-c2ccc(-n3c(Cl)cc4[nH]c(=O)n(CCC(=O)O)c(=O)c43)cc2)c1O", "note": "[Example 5, 3-[6-Chloro-5-(2′-hydroxy-3′-methyl-4-biphenylyl)-2,4-dioxo-1,2,4,5-tetrahydro-3H-pyrrolo[3,2-d]pyrimidin-3-yl]propanoic acid]", "pEC50": "greater than 5.5"}, {"smiles": "O=C(O)CCn1c(=O)[nH]c2cc(Cl)n(-c3ccc(-c4ccccc4O)cc3)c2c1=O", "note": "[Example 6, 3-[6-Chloro-5-(2′-hydroxy-4-biphenylyl)-2,4-dioxo-1,2,4,5-tetrahydro-3H-pyrrolo[3,2-d]pyrimidin-3-yl]propanoic acid]", "pEC50": "greater than 5.5"}, {"smiles": "COc1cccc(-c2ccc(-n3c(Cl)cc4[nH]c(=O)n(-c5ccccc5)c(=O)c43)cc2)c1O", "note": "[Example 7, 6-Chloro-5-[2′-hydroxy-3′-(methyloxy)-4-biphenylyl]-3-phenyl-1H-pyrrolo[3,2-d]pyrimidine-2,4(3H,5H)-dione]", "pEC50": "greater than 5.5"}, {"smiles": "COc1cccc(-c2ccc(-n3c(Cl)cc4[nH]c(=O)n(-c5cccc(Cl)c5F)c(=O)c43)cc2)c1O", "note": "[Example 9, 6-Chloro-3-(3-chloro-2-fluorophenyl)-5-[2′-hydroxy-3′-(methyloxy)-4-biphenylyl]-1H-pyrrolo[3,2-d]pyrimidine-2,4(3H,5H)-dione]", "pEC50": "greater than 5.5"}, {"smiles": "COc1cccc(-c2ccc(-n3c(Cl)cc4[nH]c(=O)n(-c5cccc(F)c5C)c(=O)c43)cc2)c1O", "note": "[Example 10, 6-Chloro-3-(3-fluoro-2-methylphenyl)-5-[2′-hydroxy-3′-(methyloxy)-4-biphenylyl]-1H-pyrrolo[3,2-d]pyrimidine-2,4(3H,5H)-dione]", "pEC50": "greater than 5.5"}, {"smiles": "COc1cccc(-c2ccc(-n3c(Cl)cc4[nH]c(=O)n(-c5cccc(C)c5C)c(=O)c43)cc2)c1O", "note": "[Example 11, 6-Chloro-3-(2,3-dimethylphenyl)-5-[2′-hydroxy-3′-(methyloxy)-4-biphenylyl]-1H-pyrrolo[3,2-d]pyrimidine-2,4(3H,5H)-dione]", "pEC50": "greater than 5.5"}, {"smiles": "COc1cccc(-c2ccc(-n3c(Cl)cc4[nH]c(=O)n(-c5cccc(C#N)c5)c(=O)c43)cc2)c1O", "note": "[Example 12, 3-{6-Chloro-5-[2′-hydroxy-3′-(methyloxy)-4-biphenylyl]-2,4-dioxo-1,2,4,5-tetrahydro-3H-pyrrolo[3,2-d]pyrimidin-3-yl}benzonitrile]", "pEC50": "greater than 5.5"}, {"smiles": "COc1cccc(-c2ccc(-n3c(Cl)cc4[nH]c(=O)n(-c5cccc(Cl)c5C)c(=O)c43)cc2)c1O", "note": "[Example 13, 6-Chloro-3-(3-chloro-2-methylphenyl)-5-[2′-hydroxy-3′-(methyloxy)-4-biphenylyl]-1H-pyrrolo[3,2-d]pyrimidine-2,4(3H,5H)-dione]", "pEC50": "greater than 5.5"}, {"smiles": "COc1cccc(-c2ccc(-n3c(Cl)cc4[nH]c(=O)n(-c5c(C)cccc5Cl)c(=O)c43)cc2)c1O", "note": "[Example 14, 6-Chloro-3-(2-chloro-6-methylphenyl)-5-[2′-hydroxy-3′-(methyloxy)-4-biphenylyl]-1H-pyrrolo[3,2-d]pyrimidine-2,4(3H,5H)-dione]", "pEC50": "greater than 5.5"}, {"smiles": "COc1cccc(-c2ccc(-n3c(Cl)cc4[nH]c(=O)n(-c5c(F)cccc5F)c(=O)c43)cc2)c1O", "note": "[Example 15, 6-Chloro-3-(2,6-difluorophenyl)-5-[2′-hydroxy-3′-(methyloxy)-4-biphenylyl]-1H-pyrrolo[3,2-d]pyrimidine-2,4(3H,5H)-dione]", "pEC50": "greater than 5.5"}, {"smiles": "COc1cccc(-c2ccc(-n3c(Cl)cc4[nH]c(=O)n(-c5cccc(C(F)(F)F)c5)c(=O)c43)cc2)c1O", "note": "[Example 16, 6-Chloro-5-[2′-hydroxy-3′-(methyloxy)-4-biphenylyl]-3-[3-(trifluoromethyl)phenyl]-1H-pyrrolo[3,2-d]pyrimidine-2,4(3H,5H)-dione]", "pEC50": "greater than 5.5"}, {"smiles": "COc1cccc(-c2ccc(-n3c(Cl)cc4[nH]c(=O)n(CCO)c(=O)c43)cc2)c1O", "note": "[Example 17, 6-Chloro-3-(2-hydroxyethyl)-5-[2′-hydroxy-3′-(methyloxy)-4-biphenylyl]-1H-pyrrolo[3,2-d]pyrimidine-2,4(3H,5H)-dione]", "pEC50": "greater than 5.5"}, {"smiles": "COCCn1c(=O)[nH]c2cc(Cl)n(-c3ccc(-c4cccc(OC)c4O)cc3)c2c1=O", "note": "[Example 18, 6-Chloro-5-[2′-hydroxy-3′-(methyloxy)-4-biphenylyl]-3-[2-(methyloxy)ethyl]-1H-pyrrolo[3,2-d]pyrimidine-2,4(3H,5H)-dione]", "pEC50": "greater than 5.5"}, {"smiles": "COc1cccc(-c2ccc(-n3c(Cl)cc4[nH]c(=O)n(-c5ccccc5C)c(=O)c43)cc2)c1O", "note": "[Example 19, 6-Chloro-5-[2′-hydroxy-3′-(methyloxy)-4-biphenylyl]-3-(2-methylphenyl)-1H-pyrrolo[3,2-d]pyrimidine-2,4(3H,5H)-dione]", "pEC50": "greater than 5.5"}, {"smiles": "COc1cccc(-c2ccc(-n3c(Cl)cc4[nH]c(=O)n(-c5ccccc5Cl)c(=O)c43)cc2)c1O", "note": "[Example 20, 6-Chloro-3-(2-chlorophenyl)-5-[2′-hydroxy-3′-(methyloxy)-4-biphenylyl]-1H-pyrrolo[3,2-d]pyrimidine-2,4(3H,5H)-dione]", "pEC50": "greater than 5.5"}, {"smiles": "COc1cccc(-c2ccc(-n3c(Cl)cc4[nH]c(=O)n(-c5cccc(Cl)c5)c(=O)c43)cc2)c1O", "note": "[Example 21, 6-Chloro-3-(3-chlorophenyl)-5-[2′-hydroxy-3′-(methyloxy)-4-biphenylyl]-1H-pyrrolo[3,2-d]pyrimidine-2,4(3H,5H)-dione]", "pEC50": "greater than 5.5"}, {"smiles": "COc1cccc(-c2ccc(-n3c(Cl)cc4[nH]c(=O)n(-c5ccccc5F)c(=O)c43)cc2)c1O", "note": "[Example 22, 6-chloro-3-(2-fluorophenyl)-5-[2′-hydroxy-3′-(methyloxy)-4-biphenylyl]-1H-pyrrolo[3,2-d]pyrimidine-2,4(3H,5H)-dione]", "pEC50": "greater than 5.5"}, {"smiles": "COc1cccc(-n2c(=O)[nH]c3cc(Cl)n(-c4ccc(-c5cccc(OC)c5O)cc4)c3c2=O)c1", "note": "[Example 23, 6-Chloro-5-[2′-hydroxy-3′-(methyloxy)-4-biphenylyl]-3-[3-(methyloxy)phenyl]-1H-pyrrolo[3,2-d]pyrimidine-2,4(3H,5H)-dione]", "pEC50": "greater than 5.5"}, {"smiles": "COc1cccc(-c2ccc(-n3c(Cl)cc4[nH]c(=O)n(-c5ccc(F)cc5)c(=O)c43)cc2)c1O", "note": "[Example 25, 6-Chloro-3-(4-fluorophenyl)-5-[2′-hydroxy-3′-(methyloxy)-4-biphenylyl]-1H-pyrrolo[3,2-d]pyrimidine-2,4(3H,5H)-dione]", "pEC50": "greater than 5.5"}, {"smiles": "COc1cccc(-c2ccc(-n3c(Cl)cc4[nH]c(=O)n(-c5ccc(Cl)cc5)c(=O)c43)cc2)c1O", "note": "[Example 26, 6-Chloro-3-(4-chlorophenyl)-5-[2′-hydroxy-3′-(methyloxy)-4-biphenylyl]-1H-pyrrolo[3,2-d]pyrimidine-2,4(3H,5H)-dione]", "pEC50": "greater than 5.5"}, {"smiles": "COc1cccc(-c2ccc(-n3c(Cl)cc4[nH]c(=O)n(-c5ccc(C)cc5)c(=O)c43)cc2)c1O", "note": "[Example 27, 6-Chloro-5-[2′-hydroxy-3′-(methyloxy)-4-biphenylyl]-3-(4-methylphenyl)-1H-pyrrolo[3,2-d]pyrimidine-2,4(3H,5H)-dione]", "pEC50": "greater than 5.5"}, {"smiles": "COc1cccc(-c2ccc(-n3c(Cl)cc4[nH]c(=O)n(-c5cccc(C)c5)c(=O)c43)cc2)c1O", "note": "[Example 28, 6-Chloro-5-[2′-hydroxy-3′-(methyloxy)-4-biphenylyl]-3-(3-methylphenyl)-1H-pyrrolo[3,2-d]pyrimidine-2,4(3H,5H)-dione]", "pEC50": "greater than 5.5"}, {"smiles": "COc1cccc(-c2ccc(-n3c(Cl)cc4[nH]c(=O)n(-c5ccc(C#N)cc5)c(=O)c43)cc2)c1O", "note": "[Example 29, 4-{6-Chloro-5-[2′-hydroxy-3′-(methyloxy)-4-biphenylyl]-2,4-dioxo-1,2,4,5-tetrahydro-3H-pyrrolo[3,2-d]pyrimidin-3-yl}benzonitrile]", "pEC50": "greater than 5.5"}, {"smiles": "COc1cccc(-c2ccc(-n3c(Cl)cc4[nH]c(=O)n(-c5c(C)cccc5[N+](=O)[O-])c(=O)c43)cc2)c1O", "note": "[Example 30, 6-Chloro-5-[2′-hydroxy-3′-(methyloxy)-4-biphenylyl]-3-(2-methyl-6-nitrophenyl)-1H-pyrrolo[3,2-d]pyrimidine-2,4(3H,5H)-dione]", "pEC50": "greater than 5.5"}]}]}
